According to patent publication US7632657B2, “Method of detecting meticillin-resistant microorganisms” (priority 2002, dated 2009):
Some entries share one result that the patent states for a list of compounds.

Assay: Stability of the detection medium prepared with the antibiotic
Format: physicochemical
Conditions: general statement, concentration not given
Method: For example, a stability of at least 2 months has been observed for a medium in accordance with the invention prepared with cefoxitin at a concentration of 5 mg/l, added to the medium when the latter is at a temperature of 48° C. The stability of the medium in accordance with the invention has been brought to at least 5 months when said medium has been prepared with cefmetazole at a concentration of 2.5 mg/l, added to the medium when the latter is at a temperature of 48° C.
The expression “stability of the medium” is intended to denote the ability of the medium in accordance with the invention to allow the selective detection of meticillin-resistant microorganisms, in particular staphylococcus aureus, for a given period of time, with the same reliability throughout the period of time.

Row | SMILES | specific stability conferred on the medium
1 | CO[C@@]1(NC(=O)CSCC#N)C(=O)N2C(C(=O)O)=C(CSc3nnnn3C)CS[C@@H]21 [cefmetazole] | at least 2 months
2 | CO[C@@]1(NC(=O)Cc2cccs2)C(=O)N2C(C(=O)O)=C(COC(N)=O)CS[C@@H]21 [Cefoxitin, cefoxitin] | at least 2 months
